# Primary screen of a compound library

Data taken from ChEMBL document CHEMBL3988442, “University of Dundee, Small-Polar-MMV Screening Library” (2021).

Mtb cholesterol medium: 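Phenotypic screen: M. tuberculosis growth, cholesterol and DPPC medium, 4 days; the read-out is not stated. Tested at 50 µM. Higher reads as more growth inhibition (inferred: compounds with an IC50 in retests scored well above the rest). Size under these conditions: about 69,000 compounds, about 370 of them at 50% or above in at least one test.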
Mtb glucose medium: 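Whole-cell growth test on Mycobacterium tuberculosis, read after 3 days in glucose-containing 7H9 medium; the read-out is not stated. Compounds at 50 µM. Higher reads as more growth inhibition (inferred: compounds with an IC50 in retests scored well above the rest). About 69,000 compounds were tested under these conditions; 1.1% (about 760) showed 50% or more at least once.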

Values are the deposited “Percent Effect”, in %. How 0% and 100% were set is not recorded. Most values in the screen are low, and negative values occur. The compounds are a random part of those screened. Two or more numbers in one place are separate tests of the same structure; such repeats can differ widely.

SMILES,Mtb cholesterol medium,Mtb glucose medium
CCc1noc(C(C)N2CCN(C(=O)CN3CCOCC3)CC2)n1 (centres undefined),24.92,0.1055
O=S(=O)(Nc1cnc(N2CCCC2)nc1)c1ccc(F)cc1F,12.78,16.96
O=C(c1ccc(C2CCCO2)s1)N1CCS(=O)(=O)CC1 (centres undefined),16.61,3.853
O=C(NCCCn1cnnc1)C1CCCN(C2CCCC2)C1 (centres undefined),7.847,1.743
CC(O)CN1CCN(C(=O)CN(C)c2ccc(Cl)cn2)CC1 (centres undefined),-1.46,-33.79
Cc1cc(N2CCCC(N(C)C)C2)n2nc(C)cc2n1 (centres undefined),1.561,8.337 & 21.12
COc1ccc(C(=O)N2CC[C@@H](N3CCC(O)CC3)[C@H](O)C2)cc1C,1.281 & 7.341,2.103 & 0.323
Cc1nc(CN[C@H]2CCCN(C(=O)OC(C)(C)C)C2)cs1,-9.082,2.087
Cc1cc(-c2ccccc2)nc(C2CCCN2S(C)(=O)=O)n1 (centres undefined),-2.809,-6.501
CCC1c2ccsc2CCN1C(=O)NCCNc1ncccn1 (centres undefined),5.224,-11.35
O=C(O)C(F)(F)F.[H][C@@]12CCN(c3ccccc3)C[C@@]1([H])O[C@@H](C(=O)NCCOC)C2,16,25.03
Cc1nnc(NCc2ccc(SC(F)F)cc2)o1,20.43,6.888 & 27.24
CC(=O)N(C)c1nc(Cn2nnnc2C(C)C)cs1,4.406,3.996
CNS(=O)(=O)CCN1CC(c2ccccc2)(c2ccccc2)CCC1=O,-21.02,4.222
O=C(O)C(F)(F)F.c1ccc(-c2ncc3c(n2)C2(CCN(CC4CC4)C2)COC3)cc1 (centres undefined),14.75,-6.14 & 0.4007
C[C@@H]1CN(c2cc(N3CCC(O)CC3)ncn2)C[C@@]1(O)C1CCC1,-35.4,-34.98
Cc1csc(CN2CCC3(CC2)COC(COc2ccccn2)C3)n1 (centres undefined),11.29,29.46
COc1ccc(N2CCN(C(=O)CCn3nccc3C)C(C)C2)cc1 (centres undefined),5.779 & 6.485,-9.623
COc1ccc2nnc(CCC(=O)NCc3cccn3C)n2n1,-4.785,7.719
O=C1CC2(CCCC2)CC(=O)N1CCn1cnnc1,2.095,-23.26
O=C(c1n[nH]c2c1CCC2)N1CCCC1c1nc(-c2ccccn2)no1 (centres undefined),-6.879,12.12
O=C(Nc1ccc(Cl)cc1C(=O)NCCN1CCOCC1)c1ccco1,8.597,9.732
O=C(O)c1ccccc1-c1cnc(CNC(=O)C2CCOCC2)nc1,-19.48 & -2.917,-30.91
Cc1ccccc1[C@@H]1CN(Cc2c(C)noc2C)C[C@H]1C(=O)O,-28.16,-2.284
Cn1cc(NS(=O)(=O)CCOc2ccc(F)cc2)cn1,-1.282,6.815 & -2.423
Cc1ccccc1N1CCN(C(=O)c2cnn(C(C)C)c2)C(C)C1 (centres undefined),-2.472,7.42
Cc1nc(-c2ccco2)ccc1C(=O)N1CCc2nnc(N)cc2C1,7.287,-16.01
Cc1cccnc1CC(C)NC1CCSCC1 (centres undefined),-2.143,9.626
Cc1ccccc1C(=O)NC1CCN(Cc2ncc(C(C)(C)C)o2)CC1,15.6,6.811
CCc1noc(CN(Cc2ccc3c(c2)OCO3)C2CCCC2)n1,3.697,11.84 & 6.526
COC(=O)NCC(=O)NCc1nn(-c2ccccc2)c2c1CCC2,7.021,20.11
CCn1nc(C(=O)N2CCNCC2C(=O)Nc2ccc(C)nc2)cc1C (centres undefined),-14.45 & -6.561,-2.589 & -22.82
O=C(CCc1c(F)cccc1F)NS(=O)(=O)c1ccc2c(c1)OCCO2,-11.78,4.143
Cc1cc(C)cc(NCCC(=O)NC2CCCCC2)c1,-2.987,18.95 & 8.203
Cc1cc(C)n(CC2CCCN2CC(=O)N(C)Cc2ccco2)n1 (centres undefined),-27.67,-24.4
O=C(O)CC1COCCN1CCCc1ccccc1 (centres undefined),8.806,21.07 & -5.16
CCCOc1cc(C)ccc1NC(=O)NCCNC(C)=O,13.85,19.44
Cc1cnc(NCC(C)(C)N2CCCCC2)nc1,1.387,3.229 & -1.152
[H][C@@]12CN(Cc3c(C)noc3C)C[C@]1([H])CN(C(=O)c1cscn1)C2,9.177,-6.704 & -0.4238
COc1ccc(OC)c2c(C)cc(N(C)Cc3cc(C)on3)nc12,2.96,-32.61
[H][C@]12CCN(C(C)=O)CC[C@@]1([H])S(=O)(=O)N(Cc1cccc(Cl)c1)C2,6.317,3.222 & -12.16
Cc1ccc(C)c(OCc2nnc(SCC3CCCN(C)C3)o2)c1 (centres undefined),32.92,38.07
CCCC(=O)NCc1cc(Br)c(OC)c(OC)c1,-0.604,17.17
Cc1cc(N2CCCC2c2nccnc2C)ncn1 (centres undefined),-15.03,-13.52
CCC(Nc1ccc(Oc2cccc(C#N)c2)cc1)C(N)=O (centres undefined),7.307,15.67
CN(Cc1ccco1)C(=O)CN1CCOC(Cn2cccn2)C1 (centres undefined),19.71,-20.48
CCN(C)CC1CCN(S(=O)(=O)c2cc(C)c(F)cc2Cl)C1 (centres undefined),8.542,23.02
O=C(O)C(F)(F)F.O=C1CC2(CCCCN2C(=O)Cc2ccccc2)CN1c1cccnc1 (centres undefined),2.835,5.224 & 26.53
CC(C)(C)C1SCC(=O)Nc2c1c(O)nn2C1CCCC1 (centres undefined),5.509,27.32
COc1ccc(NC(=O)N2CCC(CSC)C2)cc1C (centres undefined),18.11,6.222 & 14.37
Cc1cc(-c2cnc(C3CC3)nc2CN(C)C(=O)c2ccccn2)on1,3.159,3.429
CC(=O)c1cnc(NCCN2CCCC2)nc1C,-2.372,-12.77
CCn1cc(C(=O)Nc2cc(C)ccc2C)cn1,-12.66,-6.2 & 2.059
O=C(NCc1nnc2n1CCCCC2)N(Cc1ccncc1)C1CC1,65.4,-3.239 & -21.12
O=C(c1ccc(-n2cccn2)nc1)N1CCCN(c2cccnn2)CC1,6.166,-6.736
N#Cc1ccc(C(=O)N2CCC(c3ncc[nH]3)CC2)cn1,-25.21,-0.5424 & -8.968
CCc1cnc(C)nc1NCCC(=O)N1CCC(C)CC1,-13.41,-12.51 & -4.799
COCC(=O)N1CCC2(COCc3cnc(NCc4ccco4)nc32)C1 (centres undefined),-1.634,0.5894
CCN(CC)S(=O)(=O)NC(=O)c1cc(C)n(-c2ccccc2)n1,-5.769,-3.717 & -29.57
CCNC(=O)Cc1ccc(-c2cccc3c2CCNC3)cc1,-22.01,-9.995
[H][C@@]12CCC(=O)N(Cc3cccc(C)n3)[C@]1([H])CCN2CC1CCOCC1,12.8,35.32
CC(C)c1ccc(-n2cc(O)c(C(=O)N3CCC(C(N)=O)CC3)n2)cc1,7.126,16.35
COc1ccc(CN2CC[C@@H](O)[C@@H]2Cc2cnn(C)c2)cc1.O=C(O)C(F)(F)F,50.12 & 42.33,-37.94
O=C(NCCNc1ncccn1)C1CCN(CC(F)(F)F)CC1,-17.99,-17.38
OC(CN1CCCc2ccc(F)cc21)Cn1cccn1 (centres undefined),-11.31,-27.13
Cn1ncc(-c2cc(-c3cccc(O)c3)nc(N)c2C#N)c1C1CC1,4.522,34.34
CCCn1cnnc1CNC1CCSC1 (centres undefined),-20.52,-16.26
O=C1CC2(CCN(Cc3ccoc3)CC2)CN1Cc1cc(F)cc(F)c1,0.9524,6.087
CSc1ccccc1CCC1CCS(=O)(=O)C1 (centres undefined),-6.334,-11.76
CC(=O)N1CCCC1C(=O)NCCOc1cc(C)cc(C)c1 (centres undefined),-26.14,-10.91
COc1cccc2c1OCC(C(=O)NCCCn1nc(C)c(Cl)c1C)C2 (centres undefined),-7.571,-23.24
[H][C@]12CCCCN1CCC[C@H]2CNC(=O)Cn1ccc2c(C)cccc21,5.068,12.06
Fc1ccccc1CN1CCCC2(CCN(c3ncccn3)CC2)C1.O=C(O)C(F)(F)F,25.86 & 13.97,10.65 & 15.34

8 of the entries, repeated:

* C[C@@H]1CN(c2cc(N3CCC(O)CC3)ncn2)C[C@@]1(O)C1CCC1 | Mtb cholesterol medium: -35.4%; Mtb glucose medium: -34.98%
* [H][C@]12CCN(C(C)=O)CC[C@@]1([H])S(=O)(=O)N(Cc1cccc(Cl)c1)C2 | Mtb cholesterol medium: 6.317%; Mtb glucose medium: 3.222% & -12.16%
* CCC1c2ccsc2CCN1C(=O)NCCNc1ncccn1 (centres undefined) | Mtb cholesterol medium: 5.224%; Mtb glucose medium: -11.35%
* O=C(O)C(F)(F)F.O=C1CC2(CCCCN2C(=O)Cc2ccccc2)CN1c1cccnc1 (centres undefined) | Mtb cholesterol medium: 2.835%; Mtb glucose medium: 5.224% & 26.53%
* Cc1csc(CN2CCC3(CC2)COC(COc2ccccn2)C3)n1 (centres undefined) | Mtb cholesterol medium: 11.29%; Mtb glucose medium: 29.46%
* O=C1CC2(CCCC2)CC(=O)N1CCn1cnnc1 | Mtb cholesterol medium: 2.095%; Mtb glucose medium: -23.26%
* Cn1cc(NS(=O)(=O)CCOc2ccc(F)cc2)cn1 | Mtb cholesterol medium: -1.282%; Mtb glucose medium: 6.815% & -2.423%
* Cc1nc(CN[C@H]2CCCN(C(=O)OC(C)(C)C)C2)cs1 | Mtb cholesterol medium: -9.082%; Mtb glucose medium: 2.087%